Test results published in the supplement of paper PMC10849652.
The list shows a part of the results.

Chains of the proteins cited; added tags and fusions are not shown. Lines headed by an entry give the natural chain unless they say otherwise; changes in a name come on top.
UniProt Q6VN20, whole entry, looked up: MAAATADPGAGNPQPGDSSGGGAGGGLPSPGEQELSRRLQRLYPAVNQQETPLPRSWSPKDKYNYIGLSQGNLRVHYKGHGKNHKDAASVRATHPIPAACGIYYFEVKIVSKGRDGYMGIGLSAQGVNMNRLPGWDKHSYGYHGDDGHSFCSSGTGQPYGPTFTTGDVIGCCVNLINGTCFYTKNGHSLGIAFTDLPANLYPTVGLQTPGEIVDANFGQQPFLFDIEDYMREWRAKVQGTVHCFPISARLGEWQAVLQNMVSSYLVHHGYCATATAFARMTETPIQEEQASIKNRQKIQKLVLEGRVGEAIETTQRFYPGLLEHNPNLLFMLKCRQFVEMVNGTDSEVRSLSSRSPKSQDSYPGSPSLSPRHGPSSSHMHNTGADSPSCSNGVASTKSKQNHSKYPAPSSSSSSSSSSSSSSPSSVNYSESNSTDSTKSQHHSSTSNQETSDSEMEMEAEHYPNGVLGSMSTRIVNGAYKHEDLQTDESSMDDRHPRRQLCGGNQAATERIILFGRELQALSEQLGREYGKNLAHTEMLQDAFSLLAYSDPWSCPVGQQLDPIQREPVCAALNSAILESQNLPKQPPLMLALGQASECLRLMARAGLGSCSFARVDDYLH
UniProt Q96PK6: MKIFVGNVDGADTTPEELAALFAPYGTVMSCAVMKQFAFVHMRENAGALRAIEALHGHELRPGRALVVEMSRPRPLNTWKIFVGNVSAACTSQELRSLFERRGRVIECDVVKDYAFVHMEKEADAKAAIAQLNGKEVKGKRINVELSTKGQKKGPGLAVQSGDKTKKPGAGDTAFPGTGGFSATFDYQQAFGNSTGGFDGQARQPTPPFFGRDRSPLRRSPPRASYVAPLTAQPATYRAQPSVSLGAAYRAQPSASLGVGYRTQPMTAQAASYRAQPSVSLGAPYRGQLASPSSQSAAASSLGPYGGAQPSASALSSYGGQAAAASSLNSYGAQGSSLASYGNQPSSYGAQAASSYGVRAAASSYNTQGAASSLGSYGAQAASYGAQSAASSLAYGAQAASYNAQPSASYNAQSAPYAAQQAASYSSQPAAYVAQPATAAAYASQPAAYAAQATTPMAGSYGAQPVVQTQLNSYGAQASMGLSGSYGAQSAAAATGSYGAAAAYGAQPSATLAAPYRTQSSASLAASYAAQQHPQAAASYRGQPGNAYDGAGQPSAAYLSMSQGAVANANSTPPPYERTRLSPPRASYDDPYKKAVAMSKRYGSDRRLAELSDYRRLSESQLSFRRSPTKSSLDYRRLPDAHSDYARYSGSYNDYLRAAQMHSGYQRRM
UniProt Q9NP72: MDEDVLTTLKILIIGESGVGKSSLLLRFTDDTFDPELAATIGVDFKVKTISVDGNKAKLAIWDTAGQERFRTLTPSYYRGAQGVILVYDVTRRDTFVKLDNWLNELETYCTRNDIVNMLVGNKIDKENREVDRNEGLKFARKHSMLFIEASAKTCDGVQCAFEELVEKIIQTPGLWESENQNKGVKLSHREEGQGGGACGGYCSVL
UniProt Q99708: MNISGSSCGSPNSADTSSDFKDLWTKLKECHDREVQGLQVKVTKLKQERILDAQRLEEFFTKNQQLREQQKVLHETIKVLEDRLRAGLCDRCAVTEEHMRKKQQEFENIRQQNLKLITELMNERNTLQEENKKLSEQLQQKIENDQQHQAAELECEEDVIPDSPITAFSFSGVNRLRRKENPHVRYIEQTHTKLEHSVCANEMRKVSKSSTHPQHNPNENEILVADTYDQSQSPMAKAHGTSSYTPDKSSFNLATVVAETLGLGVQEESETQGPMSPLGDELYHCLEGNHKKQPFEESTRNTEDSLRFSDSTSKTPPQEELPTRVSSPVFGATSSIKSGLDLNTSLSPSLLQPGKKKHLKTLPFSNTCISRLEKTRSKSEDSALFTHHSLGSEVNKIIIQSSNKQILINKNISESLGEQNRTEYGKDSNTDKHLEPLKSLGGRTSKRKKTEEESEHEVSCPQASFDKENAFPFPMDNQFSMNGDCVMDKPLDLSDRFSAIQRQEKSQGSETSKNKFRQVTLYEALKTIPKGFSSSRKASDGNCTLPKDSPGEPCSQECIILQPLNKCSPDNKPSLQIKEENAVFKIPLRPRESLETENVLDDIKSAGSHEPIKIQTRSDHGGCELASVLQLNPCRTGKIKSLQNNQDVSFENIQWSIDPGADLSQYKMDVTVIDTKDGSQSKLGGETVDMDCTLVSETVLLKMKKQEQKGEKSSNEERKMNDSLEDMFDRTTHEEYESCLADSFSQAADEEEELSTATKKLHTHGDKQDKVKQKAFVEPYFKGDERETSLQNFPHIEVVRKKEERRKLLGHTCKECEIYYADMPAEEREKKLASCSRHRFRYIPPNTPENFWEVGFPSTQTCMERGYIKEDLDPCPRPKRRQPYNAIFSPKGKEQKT
UniProt P20936: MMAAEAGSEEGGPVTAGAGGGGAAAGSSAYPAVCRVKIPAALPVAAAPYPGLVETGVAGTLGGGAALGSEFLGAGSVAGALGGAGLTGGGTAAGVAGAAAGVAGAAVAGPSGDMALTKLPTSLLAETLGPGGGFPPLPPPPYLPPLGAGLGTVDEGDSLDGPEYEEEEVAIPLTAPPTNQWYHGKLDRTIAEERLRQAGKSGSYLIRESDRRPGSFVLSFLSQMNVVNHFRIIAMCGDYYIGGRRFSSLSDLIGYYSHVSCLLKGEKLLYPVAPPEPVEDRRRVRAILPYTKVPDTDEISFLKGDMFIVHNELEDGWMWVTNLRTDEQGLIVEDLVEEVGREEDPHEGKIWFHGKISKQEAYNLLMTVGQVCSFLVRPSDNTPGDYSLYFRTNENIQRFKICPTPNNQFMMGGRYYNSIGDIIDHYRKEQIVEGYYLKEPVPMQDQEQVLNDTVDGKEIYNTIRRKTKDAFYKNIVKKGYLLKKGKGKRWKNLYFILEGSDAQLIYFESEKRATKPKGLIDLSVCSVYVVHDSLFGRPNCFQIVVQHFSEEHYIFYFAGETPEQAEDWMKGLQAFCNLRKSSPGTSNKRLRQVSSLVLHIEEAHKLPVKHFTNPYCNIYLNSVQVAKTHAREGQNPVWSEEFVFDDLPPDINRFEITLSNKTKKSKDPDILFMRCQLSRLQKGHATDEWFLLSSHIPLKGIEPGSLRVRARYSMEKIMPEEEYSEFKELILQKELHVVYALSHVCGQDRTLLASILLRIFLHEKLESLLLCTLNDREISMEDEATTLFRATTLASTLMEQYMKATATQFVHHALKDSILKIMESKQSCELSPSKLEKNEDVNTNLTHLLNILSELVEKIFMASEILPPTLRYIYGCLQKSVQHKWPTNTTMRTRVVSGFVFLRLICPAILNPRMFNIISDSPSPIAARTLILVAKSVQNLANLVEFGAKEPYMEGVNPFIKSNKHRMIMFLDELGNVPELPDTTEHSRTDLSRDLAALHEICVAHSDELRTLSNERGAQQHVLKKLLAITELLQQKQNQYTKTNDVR
UniProt Q13905: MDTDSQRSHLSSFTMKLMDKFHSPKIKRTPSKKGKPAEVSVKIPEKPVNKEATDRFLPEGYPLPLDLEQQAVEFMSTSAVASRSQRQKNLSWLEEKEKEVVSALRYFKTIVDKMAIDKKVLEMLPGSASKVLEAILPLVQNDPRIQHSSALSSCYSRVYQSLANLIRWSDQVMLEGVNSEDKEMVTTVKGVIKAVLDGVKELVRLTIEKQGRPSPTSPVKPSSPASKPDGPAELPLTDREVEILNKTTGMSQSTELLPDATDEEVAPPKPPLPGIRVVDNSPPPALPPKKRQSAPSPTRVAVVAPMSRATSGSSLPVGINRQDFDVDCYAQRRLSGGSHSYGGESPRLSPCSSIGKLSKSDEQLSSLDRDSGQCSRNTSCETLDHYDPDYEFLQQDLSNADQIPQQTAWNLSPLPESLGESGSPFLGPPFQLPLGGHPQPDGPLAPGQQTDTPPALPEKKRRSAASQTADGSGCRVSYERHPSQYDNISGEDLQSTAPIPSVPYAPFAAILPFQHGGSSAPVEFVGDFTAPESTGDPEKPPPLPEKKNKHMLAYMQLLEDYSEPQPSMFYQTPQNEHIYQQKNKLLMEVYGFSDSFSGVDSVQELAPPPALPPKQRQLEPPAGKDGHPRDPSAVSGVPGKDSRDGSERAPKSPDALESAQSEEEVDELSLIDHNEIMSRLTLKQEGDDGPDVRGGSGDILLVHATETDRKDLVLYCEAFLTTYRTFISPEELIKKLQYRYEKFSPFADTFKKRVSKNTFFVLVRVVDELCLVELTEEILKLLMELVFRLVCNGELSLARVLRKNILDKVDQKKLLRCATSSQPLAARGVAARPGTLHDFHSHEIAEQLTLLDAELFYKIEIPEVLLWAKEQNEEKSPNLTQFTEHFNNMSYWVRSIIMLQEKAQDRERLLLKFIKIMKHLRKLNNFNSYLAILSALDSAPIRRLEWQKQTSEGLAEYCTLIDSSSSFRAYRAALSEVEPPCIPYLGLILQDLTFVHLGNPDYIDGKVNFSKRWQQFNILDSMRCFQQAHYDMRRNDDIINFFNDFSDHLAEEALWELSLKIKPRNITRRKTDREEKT
UniProt Q9NS23: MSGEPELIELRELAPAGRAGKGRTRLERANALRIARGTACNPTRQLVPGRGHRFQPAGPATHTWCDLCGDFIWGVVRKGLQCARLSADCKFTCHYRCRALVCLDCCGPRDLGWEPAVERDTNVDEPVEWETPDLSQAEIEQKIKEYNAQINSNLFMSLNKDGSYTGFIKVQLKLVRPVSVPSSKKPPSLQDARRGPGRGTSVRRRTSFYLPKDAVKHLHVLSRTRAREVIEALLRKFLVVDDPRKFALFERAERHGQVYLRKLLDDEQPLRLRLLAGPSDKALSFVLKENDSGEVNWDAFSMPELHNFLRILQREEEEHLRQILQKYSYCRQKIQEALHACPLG
UniProt Q86U06: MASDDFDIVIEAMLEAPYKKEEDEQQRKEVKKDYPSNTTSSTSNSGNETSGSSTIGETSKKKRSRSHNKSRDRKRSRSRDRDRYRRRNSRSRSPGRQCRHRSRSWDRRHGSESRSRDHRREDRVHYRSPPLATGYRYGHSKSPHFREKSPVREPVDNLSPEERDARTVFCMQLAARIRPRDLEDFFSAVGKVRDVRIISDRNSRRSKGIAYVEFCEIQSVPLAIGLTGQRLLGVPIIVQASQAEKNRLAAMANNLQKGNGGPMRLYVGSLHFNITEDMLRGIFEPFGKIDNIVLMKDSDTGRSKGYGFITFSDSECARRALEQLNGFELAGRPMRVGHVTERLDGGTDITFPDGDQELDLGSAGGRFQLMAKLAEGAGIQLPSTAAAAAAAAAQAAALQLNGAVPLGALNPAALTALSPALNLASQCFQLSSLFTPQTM
UniProt Q09028, whole entry, looked up: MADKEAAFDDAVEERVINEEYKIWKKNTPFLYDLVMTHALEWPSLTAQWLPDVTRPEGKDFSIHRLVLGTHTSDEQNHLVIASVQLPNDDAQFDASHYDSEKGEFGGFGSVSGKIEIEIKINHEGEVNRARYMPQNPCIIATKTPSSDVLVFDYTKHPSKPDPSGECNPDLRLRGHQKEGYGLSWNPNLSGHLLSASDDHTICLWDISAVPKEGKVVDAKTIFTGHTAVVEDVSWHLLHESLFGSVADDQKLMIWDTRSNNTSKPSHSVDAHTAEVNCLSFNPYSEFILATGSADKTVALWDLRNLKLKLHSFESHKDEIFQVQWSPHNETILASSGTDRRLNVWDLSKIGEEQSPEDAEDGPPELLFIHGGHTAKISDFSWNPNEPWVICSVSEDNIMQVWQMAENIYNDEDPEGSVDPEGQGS
UniProt Q14644: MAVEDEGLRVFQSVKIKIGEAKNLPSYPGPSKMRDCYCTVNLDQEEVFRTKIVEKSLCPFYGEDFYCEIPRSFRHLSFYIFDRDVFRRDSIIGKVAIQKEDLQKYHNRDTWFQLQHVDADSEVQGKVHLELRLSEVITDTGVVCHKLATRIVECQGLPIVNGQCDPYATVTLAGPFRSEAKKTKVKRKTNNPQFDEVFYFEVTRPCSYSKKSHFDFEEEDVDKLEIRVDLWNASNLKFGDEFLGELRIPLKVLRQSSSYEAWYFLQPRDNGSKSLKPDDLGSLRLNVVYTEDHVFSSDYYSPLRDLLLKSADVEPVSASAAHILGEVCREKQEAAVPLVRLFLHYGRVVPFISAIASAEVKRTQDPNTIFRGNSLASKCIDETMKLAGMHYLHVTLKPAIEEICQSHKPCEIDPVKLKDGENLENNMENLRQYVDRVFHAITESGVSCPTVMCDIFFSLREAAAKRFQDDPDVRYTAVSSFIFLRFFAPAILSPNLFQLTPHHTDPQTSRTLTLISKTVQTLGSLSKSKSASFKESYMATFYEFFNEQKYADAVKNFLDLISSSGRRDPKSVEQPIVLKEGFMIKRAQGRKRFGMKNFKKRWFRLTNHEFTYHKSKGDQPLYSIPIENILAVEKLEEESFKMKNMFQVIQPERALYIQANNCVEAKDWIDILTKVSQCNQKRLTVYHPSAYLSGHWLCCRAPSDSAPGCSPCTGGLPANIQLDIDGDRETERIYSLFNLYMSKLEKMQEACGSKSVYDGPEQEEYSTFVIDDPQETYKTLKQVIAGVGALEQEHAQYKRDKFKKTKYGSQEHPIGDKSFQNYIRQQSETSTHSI

Columns and labels:
Test in all cases: log2 fold change, soluble protein after heating vs DMSO (PISA); higher = thermal stabilisation; K562 cells, 10 uM, 30 min; active = over 0.2 and 3.5 SD of the protein, either way, in both replicates (recomputed)
bafetinib = compound: Cc1ccc(NC(=O)c2ccc(CN3CC[C@H](N(C)C)C3)c(C(F)(F)F)c2)cc1Nc1nccc(-c2cncnc2)n1 [bafetinib]
How it was run: (§1)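 For each measurement, 10 μM compound was applied for 30 min to K562 cells at 2×10^6 cells/mL. Aliquots were heated for 3 min across 48°C-58°C, pooled, and extracted in PBS with 0.5% NP-40 at 4°C; the supernatant after 21,000xg for 90 min was soluble protein. This was quantified by TMTpro 16plex LC-MS/MS with channel sums equalised, and thermal stability was reported relative to control samples from duplicates, on a log2 fold-change scale.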

[1] = compound: Cc1cccc(CC(=O)N2CCc3c2ccc(-c2cn(C)c4ncnc(N)c24)c3F)n1
How it was run: as §1

nilotinib = compound: Cc1cn(-c2cc(NC(=O)c3ccc(C)c(Nc4nccc(-c5cccnc5)n4)c3)cc(C(F)(F)F)c2)cn1 [nilotinib]
How it was run: as §1

[2] = compound: Cc1nc(Nc2n[nH]c3c2CN(C(=O)N[C@H](CN(C)C)c2ccccc2)C3(C)C)c2sccc2n1
How it was run: as §1

[3] = compound: Cc1ncc(-c2ccnc(Nc3ccc(S(C)(=O)=O)cc3)n2)n1C(C)C
How it was run: as §1

[4] = compound: Cn1cc(-c2ccc3c(c2)CCN3C(=O)Cc2cccc(C(F)(F)F)c2)c2c(N)ncnc21
How it was run: as §1

[5] = compound: Cn1cc(-c2ccc3nnc(C(F)(F)c4ccc5ncccc5c4)n3n2)cn1
How it was run: as §1

tipifarnib = compound: Cn1cncc1[C@@](N)(c1ccc(Cl)cc1)c1ccc2c(c1)c(-c1cccc(Cl)c1)cc(=O)n2C [tipifarnib]
How it was run: as §1

mubritinib = compound: FC(F)(F)c1ccc(/C=C/c2nc(COc3ccc(CCCCn4ccnn4)cc3)co2)cc1 [mubritinib]
How it was run: as §1

dasatinib = compound: Cc1nc(Nc2ncc(C(=O)Nc3c(C)cccc3Cl)s2)cc(N2CCN(CCO)CC2)n1 [dasatinib]
How it was run: as §1

Measured: log2 fold change

RANBP10 (UniProt Q6VN20)
inactive: bafetinib 0.024 | [1] -0.062 | nilotinib 0.019 | [2] 0.021 | [3] 0.042 | [4] -0.109 | [5] 0.012 | tipifarnib 0.027 | mubritinib 0.1

RBBP5 isoform 2 (UniProt Q15291)
inactive: bafetinib 0.248 | [1] -0.485 | nilotinib -0.036 | [2] 0.095 | [3] -0.093 | [5] -0.009 | tipifarnib -0.076 | mubritinib -0.041

RBM14 (UniProt Q96PK6)
inactive: bafetinib -0.004 | [1] -0.165 | dasatinib -0.094 | [4] -0.051 | [5] -0.05 | tipifarnib 0.228 | mubritinib -0.077

RBM25 (UniProt P49756)
inactive: bafetinib -0.067 | [1] -0.066 | nilotinib -0.012 | [2] -0.03 | dasatinib -0.049 | [3] -0.129 | [4] -0.044 | [5] -0.096 | tipifarnib 0.068 | mubritinib 0.049

RAB7A (UniProt P51149)
inactive: bafetinib -0.071 | [1] -0.03 | nilotinib 0.013 | [2] -0.006 | dasatinib 0.046 | [3] -0.017 | [4] 0.011 | [5] 0.001 | tipifarnib 0.02 | mubritinib 0.008

RAB23 (UniProt Q9ULC3)
inactive: bafetinib -0.022 | [1] 0.016 | nilotinib -0.018 | [2] 0.017 | dasatinib 0 | [3] 0.014 | [4] 0.056 | [5] 0.024 | tipifarnib 0.063 | mubritinib 0.023

RAD51B (UniProt O15315)
inactive: bafetinib 0.034 | [1] -0.143 | nilotinib -0.023 | [2] -0.063 | dasatinib -0.107 | [3] -0.032 | [4] 0.004 | tipifarnib 0.053 | mubritinib 0.028

RAPGEF5, A0A590UJR0
inactive: bafetinib 0.069 | [1] -0.06 | nilotinib -0.051 | [2] -0.002 | dasatinib -0.515 | [3] -0.001 | [4] -0.27 | [5] 0.108 | tipifarnib -0.28 | mubritinib 0.05

RAB18 (UniProt Q9NP72)
inactive: bafetinib -0.046 | [1] -0.03 | nilotinib 0.016 | [2] -0.011 | dasatinib 0.036 | [3] -0.006 | [4] 0.013 | [5] 0.041 | tipifarnib 0.013 | mubritinib 0.012

RAD23B (UniProt P54727)
inactive: bafetinib -0.063 | [1] -0.043 | nilotinib 0.012 | [2] -0.006 | dasatinib 0.055 | [3] 0.009 | [4] 0.003 | [5] 0.013 | tipifarnib 0.026 | mubritinib 0.045

RAPGEF2, A0A2R8YGD3
inactive: bafetinib -0.072 | [1] -0.039 | dasatinib 0.097 | [4] 0.078 | [5] -0.083 | tipifarnib 0.048 | mubritinib -0.009

RANBP6 (UniProt O60518)
inactive: dasatinib 0.211 | [5] 0.063 | tipifarnib 0.19

RAPGEF4 (UniProt Q8WZA2)
inactive: bafetinib -0.075 | dasatinib 0.088 | [4] 0.201 | mubritinib 0.038

RALBP1 (UniProt Q15311)
inactive: [1] -0.052 | [4] -0.198 | tipifarnib 0.104

RBBP8 isoform 2 (UniProt Q99708)
inactive: tipifarnib 0.176

RAB28 (UniProt P51157)
inactive: [1] -0.031 | dasatinib 0.099 | [4] -0.157 | [5] 0.002

RASA1 (UniProt P20936)
inactive: nilotinib -0.006 | [2] -0.242 | dasatinib -0.046 | [3] 0.025 | [4] 0.02 | [5] -0.032 | tipifarnib -0.026 | mubritinib 0.221

RABEP2 (UniProt Q9H5N1)
inactive: [4] 0.061 | [5] 0.049

RABGAP1L isoform 5 (UniProt Q5R372)
inactive: bafetinib -0.031 | nilotinib 0.112 | [2] -0.003 | dasatinib -0.054 | [3] -0.047 | [4] -0.002 | tipifarnib 0.073 | mubritinib 0.036

Two neighbouring entries out of the list so far, quoted:
RAPGEF5, A0A590UJR0
inactive: bafetinib 0.069 | [1] -0.06 | nilotinib -0.051 | [2] -0.002 | dasatinib -0.515 | [3] -0.001 | [4] -0.27 | [5] 0.108 | tipifarnib -0.28 | mubritinib 0.05

RAB18 (UniProt Q9NP72)
inactive: bafetinib -0.046 | [1] -0.03 | nilotinib 0.016 | [2] -0.011 | dasatinib 0.036 | [3] -0.006 | [4] 0.013 | [5] 0.041 | tipifarnib 0.013 | mubritinib 0.012

The results go on:

RAP1B (UniProt F5GZG1)
inactive: bafetinib 0.017 | nilotinib 0.111 | [2] 0.028 | dasatinib 0.178 | [3] -0.217 | [4] -0.067 | tipifarnib 0.171 | mubritinib 0.04

RAI1 (UniProt Q7Z5J4)
inactive: bafetinib -0.292 | nilotinib 0.048 | [2] -0.028 | [3] -0.345 | [5] 0.219 | mubritinib -0.071

RAB11FIP5 (UniProt Q9BXF6)
inactive: [5] -0.025 | tipifarnib 0.128

RAPGEF1 isoform 3 (UniProt Q13905)
inactive: bafetinib -0.195 | mubritinib 0.15

RAB18 (UniProt H0Y6T8)
inactive: bafetinib -0.072 | nilotinib -0.124 | [2] 0.019 | [3] -0.102 | [4] 0.033 | mubritinib 0.018

RBBP7 (UniProt Q16576)
inactive: bafetinib -0.147 | nilotinib -0.005 | [2] 0.015 | dasatinib 0.042 | [3] -0.012 | [5] 0.062 | tipifarnib -0.077 | mubritinib 0.048

RASSF1 (UniProt Q9NS23)
inactive: [5] -0.104

RBFA (UniProt Q8N0V3)
inactive: tipifarnib -0.212

RBM28 (UniProt Q9NW13)
inactive: bafetinib -0.191 | [4] 0.012 | [5] -0.009 | tipifarnib 0.263 | mubritinib 0.109

RBBP9 (UniProt O75884)
inactive: mubritinib 0.157

RAP1B (UniProt F5GWU8)
inactive: dasatinib 0.019 | [4] 0.007 | [5] -0.046 | tipifarnib 0.267

RBM23 (UniProt Q86U06)
inactive: bafetinib -0.028 | dasatinib 0.005 | [4] -0.029 | [5] -0.09 | tipifarnib 0.203

RAB3B (UniProt P20337)
inactive: [1] -0.224 | [5] -0.157 | tipifarnib 0.205

RAD17 (UniProt O75943)
inactive: dasatinib -0.525

R3HDM4 (UniProt Q96D70)
inactive: bafetinib -0.013 | nilotinib -0.084 | [2] -0.007 | dasatinib -0.243 | [3] -0.007 | tipifarnib 0.059 | mubritinib 0.229

RASA2 (UniProt Q15283)
inactive: bafetinib 0.244 | [1] 0.059 | dasatinib -0.114 | [4] -0.089 | [5] 0.247 | tipifarnib 0.337 | mubritinib 0.035

RBBP4 isoform 2 (UniProt Q09028)
inactive: bafetinib -0.023 | [1] -0.142 | dasatinib 0.046 | [4] -0.105 | mubritinib -0.05

RALGAPB (UniProt Q86X10)
inactive: bafetinib -0.018 | nilotinib -0.05 | [2] -0.092 | dasatinib -0.162 | [3] 0.024 | [4] -0.13 | [5] -0.137 | tipifarnib -0.087 | mubritinib 0.052

RALGAPA1 isoform 6 (UniProt Q6GYQ0)
inactive: bafetinib -0.019 | nilotinib -0.115 | [2] 0.068 | dasatinib -0.124 | [3] 0.441 | [4] -0.026 | [5] 0.032 | tipifarnib -0.097 | mubritinib 0.086

RBKS (UniProt Q9H477)
inactive: [5] -0.019 | tipifarnib 0.308 | mubritinib 0.008

RAD23A isoform 3 (UniProt P54725)
inactive: [1] -0.312 | nilotinib -0.143 | [2] 0.456 | [3] 0.052

RASA3 (UniProt Q14644)
inactive: [1] -0.137 | dasatinib -0.073 | [4] -0.519

RALGPS2 (UniProt Q86X27)
inactive: bafetinib -0.072 | [1] -0.001 | dasatinib -0.011 | [4] 0.043 | mubritinib -0.198

RBCK1 (UniProt Q9BYM8)
inactive: dasatinib 0.009 | [4] 0.03 | tipifarnib -0.464

RACK1 (UniProt D6RF23)
inactive: bafetinib 0.05 | [1] -0.054 | dasatinib 0.122 | [4] -0.032 | [5] -0.01 | tipifarnib 0.113 | mubritinib 0.091
